According to the supplement of paper PMC8728848:
Some of the results follow.

Assays:
Experiment in all cases: glycan array binding signal (z-score within array); higher = stronger binding
Details in all cases: glycan notation: IUPAC condensed, linker removed
[1] = molecular target: Gal(b1-4)GalNAc(b1-3)[Fuc(a1-2)]Gal(b1-4)GlcNAc
Method in brief: (§1)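 Glycan array data were curated from 3228 arrays in the Consortium for Functional Glycomics database and kept only where the protein sequence was available. Glycan names were converted to IUPAC-condensed notation, and columns mapping to the same glycan were averaged. The binding signal is a within-array Z-score, averaged across arrays of the same protein sequence at different concentrations or buffers and across linkers. Negative Z-scores can be read as non-binding.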

Gal(b1-4)Glc = molecular target: Gal(b1-4)Glc
Method in brief: as §1

Gal(b1-4)Glc6S = molecular target: Gal(b1-4)Glc6S
Method in brief: as §1

Gal(b1-4)GlcNAc = molecular target: Gal(b1-4)GlcNAc
Method in brief: as §1

[2] = molecular target: Gal(b1-4)GlcNAc(a1-6)Gal(b1-4)GlcNAc
Method in brief: as §1

Gal(b1-4)GlcNAc(b1-2)Man = molecular target: Gal(b1-4)GlcNAc(b1-2)Man
Method in brief: as §1

[3] = molecular target: Gal(b1-4)GlcNAc(b1-2)Man(a1-3)Man(b1-4)GlcNAc(b1-4)GlcNAc
Method in brief: as §1

[4] = molecular target: Gal(b1-4)GlcNAc(b1-2)Man(a1-3)[Gal(b1-4)GlcNAc(b1-2)Man(a1-6)]Man(b1-4)GlcNAc(b1-4)GlcNAc
Method in brief: as §1

[5] = molecular target: Gal(b1-4)GlcNAc(b1-2)Man(a1-3)[Gal(b1-4)GlcNAc(b1-2)Man(a1-6)]Man(b1-4)GlcNAc(b1-4)[Fuc(a1-6)]GlcNAc
Method in brief: as §1

[6] = molecular target: Gal(b1-4)GlcNAc(b1-2)Man(a1-3)[Gal(b1-4)GlcNAc(b1-2)Man(a1-6)][Gal(b1-4)GlcNAc(b1-4)]Man(b1-4)GlcNAc(b1-4)[Fuc(a1-6)]GlcNAc
Method in brief: as §1

[7] = molecular target: Gal(b1-4)GlcNAc(b1-2)Man(a1-3)[Gal(b1-4)GlcNAc(b1-2)Man(a1-6)][GlcNAc(b1-4)]Man(b1-4)GlcNAc(b1-4)[Fuc(a1-6)]GlcNAc
Method in brief: as §1

[8] = molecular target: Gal(b1-4)GlcNAc(b1-2)Man(a1-3)[GlcNAc(b1-2)Man(a1-6)]Man(b1-4)GlcNAc(b1-4)GlcNAc
Method in brief: as §1

[9] = molecular target: Gal(b1-4)GlcNAc(b1-2)Man(a1-3)[GlcNAc(b1-4)][Gal(b1-4)GlcNAc(b1-2)Man(a1-6)]Man(b1-4)GlcNAc(b1-4)GlcNAc
Method in brief: as §1

[10] = molecular target: Gal(b1-4)GlcNAc(b1-2)Man(a1-3)[Man(a1-6)]Man(b1-4)GlcNAc(b1-4)GlcNAc
Method in brief: as §1

[11] = molecular target: Gal(b1-4)GlcNAc(b1-2)Man(a1-6)Man(b1-4)GlcNAc(b1-4)GlcNAc
Method in brief: as §1

[12] = molecular target: Gal(b1-4)GlcNAc(b1-2)Man(a1-6)[GlcNAc(b1-2)Man(a1-3)]Man(b1-4)GlcNAc(b1-4)GlcNAc
Method in brief: as §1

[13] = molecular target: Gal(b1-4)GlcNAc(b1-2)Man(a1-6)[Man(a1-3)]Man(b1-4)GlcNAc(b1-4)GlcNAc
Method in brief: as §1

[14] = molecular target: Gal(b1-4)GlcNAc(b1-2)[Gal(b1-4)GlcNAc(b1-4)]Man(a1-3)[Gal(b1-4)GlcNAc(b1-2)Man(a1-6)]Man(b1-4)GlcNAc(b1-4)GlcNAc
Method in brief: as §1

[15] = molecular target: Gal(b1-4)GlcNAc(b1-2)[Gal(b1-4)GlcNAc(b1-4)]Man(a1-3)[Gal(b1-4)GlcNAc(b1-2)[Gal(b1-4)GlcNAc(b1-6)]Man(a1-6)]Man(b1-4)GlcNAc(b1-4)GlcNAc
Method in brief: as §1

[16] = molecular target: Gal(b1-4)GlcNAc(b1-2)[Gal(b1-4)GlcNAc(b1-4)]Man(a1-3)[GlcNAc(b1-4)][Gal(b1-4)GlcNAc(b1-2)Man(a1-6)]Man(b1-4)GlcNAc(b1-4)GlcNAc
Method in brief: as §1

[17] = molecular target: Gal(b1-4)GlcNAc(b1-2)[Gal(b1-4)GlcNAc(b1-4)]Man(a1-3)[GlcNAc(b1-4)][Gal(b1-4)GlcNAc(b1-2)[Gal(b1-4)GlcNAc(b1-6)]Man(a1-6)]Man(b1-4)GlcNAc(b1-4)GlcNAc
Method in brief: as §1

[18] = molecular target: Gal(b1-4)GlcNAc(b1-2)[Gal(b1-4)GlcNAc(b1-6)]Man(a1-6)[Gal(b1-4)GlcNAc(b1-2)Man(a1-3)]Man(b1-4)GlcNAc(b1-4)GlcNAc
Method in brief: as §1

[19] = molecular target: Gal(b1-4)GlcNAc(b1-2)[Gal(b1-4)GlcNAc(b1-6)]Man(a1-6)[Gal(b1-4)GlcNAc(b1-2)Man(a1-3)]Man(b1-4)GlcNAc(b1-4)[Fuc(a1-6)]GlcNAc
Method in brief: as §1

[20] = molecular target: Gal(b1-4)GlcNAc(b1-2)[Gal(b1-4)GlcNAc(b1-6)]Man(a1-6)[GlcNAc(b1-4)][Gal(b1-4)GlcNAc(b1-2)Man(a1-3)]Man(b1-4)GlcNAc(b1-4)GlcNAc
Method in brief: as §1

[21] = molecular target: Gal(b1-4)GlcNAc(b1-2)[Gal(b1-4)GlcNAc(b1-6)]Man(a1-6)[GlcNAc(b1-4)][Gal(b1-4)GlcNAc(b1-2)[Gal(b1-4)GlcNAc(b1-4)]Man(a1-3)]Man(b1-4)GlcNAc(b1-4)[Fuc(a1-6)]GlcNAc
Method in brief: as §1

[22] = molecular target: Gal(b1-4)GlcNAc(b1-3)Gal(b1-3)GalNAc
Method in brief: as §1

[23] = molecular target: Gal(b1-4)GlcNAc(b1-3)Gal(b1-3)GlcNAc
Method in brief: as §1

[24] = molecular target: Gal(b1-4)GlcNAc(b1-3)Gal(b1-4)Glc
Method in brief: as §1

[25] = molecular target: Gal(b1-4)GlcNAc(b1-3)Gal(b1-4)GlcNAc
Method in brief: as §1

[26] = molecular target: Gal(b1-4)GlcNAc(b1-3)Gal(b1-4)GlcNAc(b1-2)Man(a1-3)[Gal(b1-4)GlcNAc(b1-3)Gal(b1-4)GlcNAc(b1-2)Man(a1-6)]Man(b1-4)GlcNAc(b1-4)GlcNAc
Method in brief: as §1

[27] = molecular target: Gal(b1-4)GlcNAc(b1-3)Gal(b1-4)GlcNAc(b1-2)Man(a1-3)[Gal(b1-4)GlcNAc(b1-3)Gal(b1-4)GlcNAc(b1-2)Man(a1-6)]Man(b1-4)GlcNAc(b1-4)[Fuc(a1-6)]GlcNAc
Method in brief: as §1

[28] = molecular target: Gal(b1-4)GlcNAc(b1-3)Gal(b1-4)GlcNAc(b1-2)[Gal(b1-4)GlcNAc(b1-3)Gal(b1-4)GlcNAc(b1-6)]Man(a1-6)[Gal(b1-4)GlcNAc(b1-3)Gal(b1-4)GlcNAc(b1-2)Man(a1-3)]Man(b1-4)GlcNAc(b1-4)GlcNAc
Method in brief: as §1

[29] = molecular target: Gal(b1-4)GlcNAc(b1-3)Gal(b1-4)GlcNAc(b1-2)[Gal(b1-4)GlcNAc(b1-3)Gal(b1-4)GlcNAc(b1-6)]Man(a1-6)[Gal(b1-4)GlcNAc(b1-3)Gal(b1-4)GlcNAc(b1-2)Man(a1-3)]Man(b1-4)GlcNAc(b1-4)[Fuc(a1-6)]GlcNAc
Method in brief: as §1

[30] = molecular target: Gal(b1-4)GlcNAc(b1-3)Gal(b1-4)GlcNAc(b1-3)Gal(b1-4)GlcNAc
Method in brief: as §1

[31] = molecular target: Gal(b1-4)GlcNAc(b1-3)Gal(b1-4)GlcNAc(b1-3)Gal(b1-4)GlcNAc(b1-2)Man(a1-3)[Gal(b1-4)GlcNAc(b1-3)Gal(b1-4)GlcNAc(b1-3)Gal(b1-4)GlcNAc(b1-2)Man(a1-6)]Man(b1-4)GlcNAc(b1-4)GlcNAc
Method in brief: as §1

[32] = molecular target: Gal(b1-4)GlcNAc(b1-3)Gal(b1-4)GlcNAc(b1-3)Gal(b1-4)GlcNAc(b1-2)Man(a1-3)[Gal(b1-4)GlcNAc(b1-3)Gal(b1-4)GlcNAc(b1-3)Gal(b1-4)GlcNAc(b1-2)Man(a1-6)]Man(b1-4)GlcNAc(b1-4)[Fuc(a1-6)]GlcNAc
Method in brief: as §1

[33] = molecular target: Gal(b1-4)GlcNAc(b1-3)Gal(b1-4)GlcNAc(b1-3)Gal(b1-4)GlcNAc(b1-2)[Gal(b1-4)GlcNAc(b1-3)Gal(b1-4)GlcNAc(b1-3)Gal(b1-4)GlcNAc(b1-6)]Man(a1-6)[Gal(b1-4)GlcNAc(b1-3)Gal(b1-4)GlcNAc(b1-3)Gal(b1-4)GlcNAc(b1-2)Man(a1-3)]Man(b1-4)GlcNAc(b1-4)[Fuc(a1-6)]GlcNAc
Method in brief: as §1

B1: LlpA (Arthrobacter sp) (protein)
chain: MGSSHHHHHHSSGLVPRGSHMTLHPETALRPGAAATSPNSRYRLLYQTDGNLVLYGPDGPLWDSGTNGHGAGACIMQADGNLVLYGPNDEYVWDTETDNNPGSRLVIQDDGNAVIYRPDGSPLWATETCQPPGSADSHVLQSGSTLTPTHGIRSANGLYGLLYQTDGNLVFYGPDGPLWDSGTNGRGAGACIMQPDGNLVLYGPHDEYVWDTETDNNPGSRLVIQDDGNAVIYRPDGNPTWVTGTH
- glycan array binding signal (z-score) [1]: -0.494
- glycan array binding signal (z-score) (Gal(b1-4)Glc): -0.295
- glycan array binding signal (z-score) (Gal(b1-4)Glc6S): 0.128
- glycan array binding signal (z-score) (Gal(b1-4)GlcNAc): -0.336
- glycan array binding signal (z-score) [2]: -0.48
- glycan array binding signal (z-score) (Gal(b1-4)GlcNAc(b1-2)Man): -0.011
- glycan array binding signal (z-score) [3]: 0.961
- glycan array binding signal (z-score) [4]: -0.345
- glycan array binding signal (z-score) [5]: 1.04
- glycan array binding signal (z-score) [6]: -1.07
- glycan array binding signal (z-score) [7]: -1.19
- glycan array binding signal (z-score) [8]: -1.68
- glycan array binding signal (z-score) [9]: -1.42
- glycan array binding signal (z-score) [10]: -0.891
- glycan array binding signal (z-score) [11]: 0.43
- glycan array binding signal (z-score) [12]: 0.012
- glycan array binding signal (z-score) [13]: -0.103
- glycan array binding signal (z-score) [14]: 0.278
- glycan array binding signal (z-score) [15]: -0.351
- glycan array binding signal (z-score) [16]: -0.339
- glycan array binding signal (z-score) [17]: -0.801
- glycan array binding signal (z-score) [18]: -0.781
- glycan array binding signal (z-score) [19]: -0.209
- glycan array binding signal (z-score) [20]: -0.796
- glycan array binding signal (z-score) [21]: 0.196
- glycan array binding signal (z-score) [22]: -0.526
- glycan array binding signal (z-score) [23]: 0.865
- glycan array binding signal (z-score) [24]: -0.027
- glycan array binding signal (z-score) [25]: -0.238
- glycan array binding signal (z-score) [26]: 0.48
- glycan array binding signal (z-score) [27]: 0.122
- glycan array binding signal (z-score) [28]: 0.46
- glycan array binding signal (z-score) [29]: 0.136
- glycan array binding signal (z-score) [30]: -0.083
- glycan array binding signal (z-score) [31]: 0.074
- glycan array binding signal (z-score) [32]: 1.38
- glycan array binding signal (z-score) [33]: 0.644
